We go through one substance from US5503989 (dated 1996).

A short description of the data set: general procedure: peptide synthesis; 1-(3-dimethylaminopropyl)-3-ethylcarbodiimide with HOBt/ammonia or ammonium N-hy. Conditions: late stage modification step.

Regarding human amylin, the step yield result was “about 16%”. Also, where the note is “by HPLC”, the step yield entry is on record as “greater than 95%”. For the same substance, for the setting “monitored by HPLC, run 1”, the step yield stood at 15%. Further, the step yield result (monitored by HPLC, run 2) is “in excess of 15%”.
